From PMC4891120

By UniProt entry, the sequences of proteins in these tests, tags left out. Where a name states a change or a piece, a line headed by the entry shows the natural chain unless it says otherwise.
UniProt O14745: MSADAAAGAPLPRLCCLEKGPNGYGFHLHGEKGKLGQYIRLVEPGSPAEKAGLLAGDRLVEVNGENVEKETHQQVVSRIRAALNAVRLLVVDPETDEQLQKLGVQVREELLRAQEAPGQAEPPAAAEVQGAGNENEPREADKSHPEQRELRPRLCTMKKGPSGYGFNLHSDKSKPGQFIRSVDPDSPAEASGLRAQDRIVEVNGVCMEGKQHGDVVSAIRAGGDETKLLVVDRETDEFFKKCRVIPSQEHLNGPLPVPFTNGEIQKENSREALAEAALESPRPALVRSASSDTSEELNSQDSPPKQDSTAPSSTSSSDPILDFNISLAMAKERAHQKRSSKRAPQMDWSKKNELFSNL
UniProt Q15418: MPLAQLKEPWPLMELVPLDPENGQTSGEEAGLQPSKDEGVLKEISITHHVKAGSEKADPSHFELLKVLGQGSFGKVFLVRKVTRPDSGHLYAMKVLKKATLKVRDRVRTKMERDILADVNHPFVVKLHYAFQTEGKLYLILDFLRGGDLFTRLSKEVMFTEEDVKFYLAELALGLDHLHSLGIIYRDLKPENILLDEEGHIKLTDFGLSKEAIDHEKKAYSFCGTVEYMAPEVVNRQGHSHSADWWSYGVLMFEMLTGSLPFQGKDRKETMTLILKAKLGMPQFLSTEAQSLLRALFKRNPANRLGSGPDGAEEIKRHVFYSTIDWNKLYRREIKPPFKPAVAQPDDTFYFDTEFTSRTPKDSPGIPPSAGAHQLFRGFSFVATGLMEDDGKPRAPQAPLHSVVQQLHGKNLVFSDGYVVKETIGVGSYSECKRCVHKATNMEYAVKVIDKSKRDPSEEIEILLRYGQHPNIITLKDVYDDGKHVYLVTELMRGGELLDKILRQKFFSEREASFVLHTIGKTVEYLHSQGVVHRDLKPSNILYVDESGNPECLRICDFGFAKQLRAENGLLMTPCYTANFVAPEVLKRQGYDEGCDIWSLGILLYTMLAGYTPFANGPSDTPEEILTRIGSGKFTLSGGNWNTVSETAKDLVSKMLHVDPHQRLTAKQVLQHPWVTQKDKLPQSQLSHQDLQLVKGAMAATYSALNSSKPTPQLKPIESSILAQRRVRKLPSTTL
UniProt P51812: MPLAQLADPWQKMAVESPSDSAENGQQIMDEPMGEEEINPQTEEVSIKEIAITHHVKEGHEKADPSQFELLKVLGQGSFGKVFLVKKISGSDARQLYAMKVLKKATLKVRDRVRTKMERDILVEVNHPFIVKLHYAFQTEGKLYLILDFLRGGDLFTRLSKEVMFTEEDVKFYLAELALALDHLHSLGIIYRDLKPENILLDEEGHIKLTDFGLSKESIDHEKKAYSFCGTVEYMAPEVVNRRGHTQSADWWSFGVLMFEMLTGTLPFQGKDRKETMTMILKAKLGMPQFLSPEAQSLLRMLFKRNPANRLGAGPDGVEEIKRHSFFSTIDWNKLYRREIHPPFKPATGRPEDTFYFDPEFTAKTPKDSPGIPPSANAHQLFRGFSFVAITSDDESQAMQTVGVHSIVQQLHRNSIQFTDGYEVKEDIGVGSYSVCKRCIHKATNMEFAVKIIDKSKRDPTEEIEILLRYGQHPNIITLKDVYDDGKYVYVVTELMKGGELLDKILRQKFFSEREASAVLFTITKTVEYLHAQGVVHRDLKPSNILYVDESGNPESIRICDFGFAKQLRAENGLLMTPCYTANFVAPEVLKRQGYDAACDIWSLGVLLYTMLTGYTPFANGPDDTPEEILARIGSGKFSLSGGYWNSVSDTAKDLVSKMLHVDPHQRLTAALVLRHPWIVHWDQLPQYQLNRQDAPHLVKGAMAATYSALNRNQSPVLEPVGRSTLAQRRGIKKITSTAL
UniProt Q15349: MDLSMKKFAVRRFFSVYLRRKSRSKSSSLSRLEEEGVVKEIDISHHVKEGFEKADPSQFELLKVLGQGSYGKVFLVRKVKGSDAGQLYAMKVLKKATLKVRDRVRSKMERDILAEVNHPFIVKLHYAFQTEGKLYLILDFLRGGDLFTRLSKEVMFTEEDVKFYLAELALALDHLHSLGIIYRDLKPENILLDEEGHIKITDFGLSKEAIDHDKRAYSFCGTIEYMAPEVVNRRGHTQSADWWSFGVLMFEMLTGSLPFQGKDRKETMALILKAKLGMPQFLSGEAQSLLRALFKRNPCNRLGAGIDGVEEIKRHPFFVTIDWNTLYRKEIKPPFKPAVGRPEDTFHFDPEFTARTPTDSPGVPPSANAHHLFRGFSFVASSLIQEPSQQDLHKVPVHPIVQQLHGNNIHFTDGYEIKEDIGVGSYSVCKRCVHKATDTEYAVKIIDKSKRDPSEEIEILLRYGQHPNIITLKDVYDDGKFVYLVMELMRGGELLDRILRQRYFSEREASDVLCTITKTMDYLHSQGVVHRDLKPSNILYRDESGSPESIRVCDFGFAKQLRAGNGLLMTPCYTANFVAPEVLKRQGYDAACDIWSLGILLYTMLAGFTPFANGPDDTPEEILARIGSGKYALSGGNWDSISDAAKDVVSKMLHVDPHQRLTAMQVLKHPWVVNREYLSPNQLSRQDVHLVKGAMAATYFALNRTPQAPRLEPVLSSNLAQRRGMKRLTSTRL

Target: GST-fused first PDZ domain of EBP50 (human) (UniProt O14745)
Assay: pull-down; GST fusions of EBP50 captured on glutathione-Sepharose 4B beads, mixed with lysate (CSK buffer) of transfected HeLa or HEK293 cells, overnight at 4°C, washed three times with CSK buffer; Western blotting; only the target purified

binding | Substance
binds | Myc-tagged full-length RSK1 (p90 ribosomal S6 kinase 1) (from UniProt Q15418 1-735) (enzyme)
binds | RSK2 (p90 ribosomal S6 kinase 2) (from UniProt P51812 1-740) (enzyme)
binds | RSK3 (p90 ribosomal S6 kinase 3) (from UniProt Q15349 1-733) (enzyme)

No constants are given. Whether binding was seen depends on the method and setting. Binding seen in cells or lysates may run through a third protein. A result given as binding can be weak or reduced; the word gives no strength.
